# These are yes or no findings as the source states them, for the method shown. Some entries that bind do so weakly or less than the wild type.
# Protein sequences, listed by entry. Tags and fused reporters are not part of them. Lines headed by an entry give the natural chain unless they say otherwise; changes in a name come on top.
# UniProt O15123: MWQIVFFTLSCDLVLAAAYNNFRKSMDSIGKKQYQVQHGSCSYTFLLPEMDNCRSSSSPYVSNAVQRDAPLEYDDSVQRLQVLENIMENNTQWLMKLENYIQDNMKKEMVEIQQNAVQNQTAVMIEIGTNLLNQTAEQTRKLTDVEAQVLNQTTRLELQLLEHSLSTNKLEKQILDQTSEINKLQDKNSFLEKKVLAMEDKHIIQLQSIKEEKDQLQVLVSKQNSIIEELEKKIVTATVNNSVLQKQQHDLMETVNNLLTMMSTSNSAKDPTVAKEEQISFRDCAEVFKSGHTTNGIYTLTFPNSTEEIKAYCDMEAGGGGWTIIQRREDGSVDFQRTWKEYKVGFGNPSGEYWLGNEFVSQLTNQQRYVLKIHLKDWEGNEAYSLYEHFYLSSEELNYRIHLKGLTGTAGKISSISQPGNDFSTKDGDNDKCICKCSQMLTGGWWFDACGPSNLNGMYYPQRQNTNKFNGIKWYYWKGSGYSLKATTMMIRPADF
# Target: recombinant biotinylated hAngiopoietin-2 protein (R&D, Cat. No.: BT623B/CF) (human) (UniProt O15123)
# Assay: ELISA, biotin Ang2 on coated streptavidin, anti-human IgG-HRP (FIG. 1B)
row,binding,Binder
1,binds,"humanized antibody hz81H10.4 (antibody, human IgG1, kappa, V domains shown) VH: EVQLVESGGGLVKPGGSLRLSCAASGFTFSNYWMNWVRQAPGKGLEWVAEIRLKSNNYATHYAESVKGRFTISRDVSKNTVYLQMNSLKTEDTAVYYCTDTAPFAYWGQGTLVTVSS VL: DIQMTQSPSSLSASVGDRVTITCKASQDVGTDVAWYQQKPGKAPKLLIYWASTRHTGVPSRFSGSGSGTDFTLTISSLQPEDFATYYCQQYSSYPLTFGGGTKVEIKR"
2,binds,"chimeric antibody 81H10 (antibody, human IgG1, kappa, V domains shown) VH: EVKLEESGGGLVQPGGSMKLSCVASGFTFSNYWMNWVRQSPEKGLEWVAEIRLKSNNYATHYAESVKGRFTISRDVSKSSVYLQMNNLRTEDTGIYYCTDTAPFAYWGQGTLVTVSA VL: DIVMTQSHKFMSTSVGDRVSITCKASQDVGTDVAWYQQKPGQSPKLLIYWASTRHTGVPDRFTGSGSGTDFTLTISNVQSEDLSDYFCQQYSSYPLTFGGGTKLEIKR"

# — patent US20240239881A1
